# PubChem BioAssay AID504834 (National Center for Advancing Translational Sciences (NCATS), 2011)
# In all, about 320,000 compounds went through this assay and about 22,000 (6.9%) were called active. The shares of active, inactive and inconclusive entries below differ from those in the screen. Calls come from the whole dose curve; as a rule, active = well fitted inhibition curve with a large enough effect; inconclusive = small, poorly fitted or top-dose-only effect, or another doubt; inactive = no such curve, though single readings can be large or run the other way. A potency beside an inconclusive call is a rough fit, not a confirmed value.
# Test: Primary qHTS for delayed death inhibitors of the malarial parasite plastid, 96 hour incubation
# Details: P. falciparum luciferase reporter growth; series mostly up to 28.7 µM
# In short: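 Readout is luminescence from an integrated firefly luciferase in P. falciparum. Red cells, 2% hematocrit and 0.05% parasitemia final, were cultured with compound through two parasite generations (96 hours) at 37 C, 5% CO2.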
# Potency is the fitted concentration of half-maximal effect.
row,SMILES,Potency
1,COc1ccc(NC(=O)c2cccnn2)cc1,"inconclusive: 18.5 µM [inhibitor, single point]"
2,FC(F)(F)c1cccc(-n2c(Cn3nnc4ccccc43)n[nH]c2=S)c1,"inconclusive: 4.15 µM [inhibitor, partial curve, poor fit]"
3,Cc1cc(C)c(C)c(S(=O)(=O)N2CCN(Cc3nc4ccccc4[nH]3)CC2)c1C,"inconclusive: 0.415 µM [inhibitor, full curve, poor fit]"
4,Cc1ccc(CC(=O)N2CCN(c3ccccc3F)CC2)cc1,"inconclusive: 18.5 µM [inhibitor, single point]"
5,CCCCCn1c(=O)c(C(=O)Nc2cccc(C)c2)c(O)c2ccccc21,"inconclusive: 13.1 µM [inhibitor, single point]"
6,Cc1ccc(-c2cc(C(=O)Nc3ccc(S(=O)(=O)Nc4nc(C)cc(C)n4)cc3)c3ccccc3n2)cc1,"inconclusive: 9.28 µM [inhibitor, partial curve, poor fit]"
7,CC(C)(C)NS(=O)(=O)c1ccc(NC(=O)c2cc(-c3ccccc3)nc3ccccc23)cc1,"inconclusive: 6.57 µM [inhibitor, partial curve, poor fit]"
8,COC(=O)C1=C(c2ccc(-c3ccccc3)c(F)c2)C[C@@H]2CC[C@H]1N2C(=O)NCCOc1ccccc1Cl,"inconclusive: 7.38 µM [inhibitor, partial curve]"
9,CC(OC(=O)C1CCN(c2ccc(C(F)(F)F)cn2)CC1)C(=O)Nc1cccc([N+](=O)[O-])c1 (stereo not drawn),"inconclusive: 18.5 µM [inhibitor, single point]"
10,O=C(O)CCC(=O)/C=C/c1ccccc1,"inconclusive: 18.5 µM [inhibitor, single point]"
11,CSc1ccc(Cl)c(C(=O)Nc2nccs2)c1,inactive
12,O=C(O)C1C2C=CC(O2)C1C(=O)NC1CCCc2ccccc21 (stereo not drawn),inactive
13,Nc1ccccc1NC(=O)CCn1c(=S)[nH]c2ccccc2c1=O,"inconclusive: 1.47 µM [inhibitor, full curve, poor fit]"
14,CSCCC(NC(=O)OC(C)(C)C)C(=O)Oc1ccc2c(=O)c(-c3ccc4c(c3)OCCO4)coc2c1 (stereo not drawn),"inconclusive: 10.4 µM [inhibitor, partial curve]"
15,CC(C)(C)c1nnc(N/N=C/c2ccccc2O)n(N)c1=O,"inconclusive: 10.4 µM [inhibitor, single point]"
16,CCC(C)C(NC(=O)C1CCC(C)CC1)C(=O)NC1CCN(Cc2ccccc2)CC1 (stereo not drawn),"inconclusive: 2.33 µM [inhibitor, full curve, poor fit]"
17,CCN(CC)CCCNC(=S)N(CCO)Cc1cc2cc3c(cc2[nH]c1=O)OCCO3,"inconclusive: 9.28 µM [inhibitor, partial curve, poor fit]"
18,COc1ccc(-c2cc(C(F)(F)F)nc(N3CCN(C)CC3)n2)cc1OC,active: 5.22 µM
19,CC1(C)CC2CC(C)(CN2C(=O)c2ccc([N+](=O)[O-])cc2[N+](=O)[O-])C1 (stereo not drawn),inactive
20,COc1ccc(C(=O)NCCNc2nc3cc(C)c(C)cc3cc2C)cc1,"inconclusive: 4.15 µM [inhibitor, single point]"
21,O=C(Nc1nnc(-c2cccs2)o1)c1cccc(C(F)(F)F)c1,"inconclusive: 13.1 µM [inhibitor, single point]"
22,CCOc1ccccc1C(=O)Nc1nnc(SCC(=O)Nc2cc(C)on2)s1,inactive

row,SMILES,Potency
1,COc1cccc(-c2csc(N3CCN(CC(=O)Nc4ccc5c(c4)OCO5)CC3)n2)c1,"inconclusive: 4.15 µM [inhibitor, single point]"
2,CSc1cccc(CN2CCN(CCC(C)C)C(CCO)C2)c1 (stereo not drawn),"inconclusive: 18.5 µM [inhibitor, single point]"
3,CC(=O)c1ccc(NC(=S)NC(C)CCc2ccccc2)cc1 (stereo not drawn),active: 9.28 µM
4,C=CCSc1nnc(NC(=O)CCN2C(=O)C3CC=CCC3C2=O)s1 (stereo not drawn),inactive
5,Fc1ccc(Nc2ncnc3ccccc23)cc1,inactive
6,O=C(/C=C/c1cn(-c2ccccc2)nc1-c1cccnc1)N1CCCC1,"inconclusive: 0.208 µM [inhibitor, full curve]"
7,CC(NC(=O)c1ccccc1)c1nc2ccccc2n1Cc1ccccc1F (stereo not drawn),inactive
8,COc1ccc(-c2coc3cc4oc(=O)c5ccccc5c4cc23)cc1F,inactive
9,COC(=O)c1ccccc1NC(=O)N1CCN(S(=O)(=O)c2ccc(Cl)cc2)CC1,"inconclusive: 11.7 µM [inhibitor, single point]"
10,CCSCc1nnc(SCC(=O)Nc2ccc(OC)cc2)n1C,"inconclusive: 18.5 µM [inhibitor, single point]"
11,Cc1ccc(O)c(CO)n1,inactive
12,CC(=O)c1ccc(NC(=O)c2cc(C)nc3ccccc23)cc1,"inconclusive: 18.5 µM [inhibitor, single point]"
13,COP(=O)(OC)c1nc(-c2cccc3ccccc23)oc1NCCc1ccccc1,"inconclusive: 18.5 µM [inhibitor, single point]"
14,COC(=O)c1[nH]c2ccc(C)cc2c1NC(=O)CN1CCCC(C)(C)C1,active: 11.7 µM
15,O=C1CCCc2[nH]c(-c3ccccc3)nc21,"inconclusive: 0.0033 µM [inhibitor, full curve, poor fit]"
16,Cc1cc(Cl)ccc1OCC(=O)NCc1ccncc1,inactive
17,COc1ccc(S(=O)(=O)N2CCCCC2)cc1NC(=O)CN1C(=O)NC(C)(C2CC2)C1=O (stereo not drawn),"inconclusive: 14.7 µM [inhibitor, partial curve, poor fit]"
18,COc1ccc([N+](=O)[O-])cc1N(CC1CO1)S(=O)(=O)c1ccc(C)cc1 (stereo not drawn),inactive
19,COc1ccccc1OCCNC(=O)C(c1ccccc1)c1ccccc1,"inconclusive: 11.7 µM [inhibitor, partial curve]"
20,CCN1C(=NCCCOC(C)C)N[C@@H](c2ccccc2)[C@H](C(=O)OC)[C@H]1C,"inconclusive: 2.33 µM [inhibitor, full curve, poor fit]"
21,CC(C)CC(NC(=O)OC(C)(C)C)c1cn([C@@H](CCCCNC(=O)OC(C)(C)C)C(=O)N2CCN(C(=O)OC(C)(C)C)CC2)nn1 (stereo partly drawn),active: 3.7 µM

# Structures shown so far that have a COOH group (two):
row,SMILES,Potency
10,O=C(O)CCC(=O)/C=C/c1ccccc1,"inconclusive: 18.5 µM [inhibitor, single point]"
12,O=C(O)C1C2C=CC(O2)C1C(=O)NC1CCCc2ccccc21 (stereo not drawn),inactive
